In this test the target is HA-tagged human Toll-like receptor 4 (human) (UniProt O00206). The experiment in a line: affinity purification with mass spectrometry; anti-HA magnetic beads on lysates of HA-TLR4-HEK293 cells (control, 1 µg/mL LPS 1 h, 10 µM simvastatin 24 h, statin then LPS; with or without ETD cross-linker), overnight at 4 °C; trypsin digestion, nano-LC-MS/MS, spectral counting.

Amino acid sequences for entries named in this document (tags omitted). Residues count along the entry.
UniProt O00206, residues 24-839: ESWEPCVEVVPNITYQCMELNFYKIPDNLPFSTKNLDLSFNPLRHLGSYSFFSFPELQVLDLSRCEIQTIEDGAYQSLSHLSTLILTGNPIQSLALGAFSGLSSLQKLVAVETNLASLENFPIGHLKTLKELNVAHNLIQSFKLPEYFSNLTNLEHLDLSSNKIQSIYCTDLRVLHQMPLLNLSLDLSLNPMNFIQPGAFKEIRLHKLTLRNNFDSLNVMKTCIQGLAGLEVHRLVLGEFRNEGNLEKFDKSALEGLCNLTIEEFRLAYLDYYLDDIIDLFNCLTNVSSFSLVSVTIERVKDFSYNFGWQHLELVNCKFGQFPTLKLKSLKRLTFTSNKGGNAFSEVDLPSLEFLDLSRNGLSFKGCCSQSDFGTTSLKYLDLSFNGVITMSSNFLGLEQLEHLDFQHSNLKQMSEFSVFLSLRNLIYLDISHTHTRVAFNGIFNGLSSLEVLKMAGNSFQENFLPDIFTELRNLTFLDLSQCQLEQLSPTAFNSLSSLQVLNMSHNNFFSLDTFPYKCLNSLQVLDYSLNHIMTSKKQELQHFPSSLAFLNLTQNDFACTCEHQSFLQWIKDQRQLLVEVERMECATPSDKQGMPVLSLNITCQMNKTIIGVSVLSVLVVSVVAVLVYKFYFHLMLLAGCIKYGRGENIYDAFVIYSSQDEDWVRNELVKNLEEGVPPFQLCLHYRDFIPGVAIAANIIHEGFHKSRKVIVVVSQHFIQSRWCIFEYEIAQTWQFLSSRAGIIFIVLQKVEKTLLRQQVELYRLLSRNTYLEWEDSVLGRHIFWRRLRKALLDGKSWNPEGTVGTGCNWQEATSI
UniProt P08670: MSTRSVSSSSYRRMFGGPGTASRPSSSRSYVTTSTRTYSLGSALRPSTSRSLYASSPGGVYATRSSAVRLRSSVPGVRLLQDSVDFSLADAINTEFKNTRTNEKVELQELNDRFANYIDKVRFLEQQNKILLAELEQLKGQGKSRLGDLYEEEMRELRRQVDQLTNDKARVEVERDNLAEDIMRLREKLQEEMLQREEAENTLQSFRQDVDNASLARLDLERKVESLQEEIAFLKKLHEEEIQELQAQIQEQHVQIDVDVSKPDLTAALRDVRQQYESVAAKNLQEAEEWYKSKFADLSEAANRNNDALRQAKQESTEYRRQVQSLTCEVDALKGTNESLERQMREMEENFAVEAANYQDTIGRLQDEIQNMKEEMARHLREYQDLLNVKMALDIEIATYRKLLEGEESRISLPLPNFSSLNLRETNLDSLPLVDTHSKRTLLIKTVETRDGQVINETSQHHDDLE

Results are given in words; binding and its absence hold for the method and conditions named. Binding seen in cells or lysates may run through a third protein. A yes stands for co-enrichment or nearness to the bait. Other partners may have been found.

With vimentin (from UniProt P08670 1-466), the binding entry is recorded as “binds”.

Values taken from paper PMC9506174.
